{
  "sequences": {"note": "Protein sequences, listed by entry. Tags and fused reporters are not part of them. Lines headed by an entry give the natural chain unless they say otherwise; changes in a name come on top.", "UniProt Q13601": "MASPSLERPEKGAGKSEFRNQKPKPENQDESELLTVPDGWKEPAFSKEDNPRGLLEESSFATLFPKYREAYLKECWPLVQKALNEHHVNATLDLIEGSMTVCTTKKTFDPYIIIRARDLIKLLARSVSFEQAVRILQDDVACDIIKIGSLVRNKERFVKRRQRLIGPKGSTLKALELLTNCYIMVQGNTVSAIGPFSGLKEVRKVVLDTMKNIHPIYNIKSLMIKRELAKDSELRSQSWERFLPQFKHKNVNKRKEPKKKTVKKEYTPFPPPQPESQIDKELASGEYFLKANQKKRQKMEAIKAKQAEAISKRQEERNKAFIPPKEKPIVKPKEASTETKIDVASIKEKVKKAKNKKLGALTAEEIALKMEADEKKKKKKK", "UniProt Q13454": "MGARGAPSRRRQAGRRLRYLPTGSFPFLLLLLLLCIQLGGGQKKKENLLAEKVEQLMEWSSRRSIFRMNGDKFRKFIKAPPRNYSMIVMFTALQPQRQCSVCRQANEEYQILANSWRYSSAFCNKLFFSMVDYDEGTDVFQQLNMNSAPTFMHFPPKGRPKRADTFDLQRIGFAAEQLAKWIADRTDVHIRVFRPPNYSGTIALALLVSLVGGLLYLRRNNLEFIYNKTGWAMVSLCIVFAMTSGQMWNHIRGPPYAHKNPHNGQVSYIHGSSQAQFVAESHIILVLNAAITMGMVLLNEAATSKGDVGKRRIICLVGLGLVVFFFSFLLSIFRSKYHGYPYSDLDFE", "UniProt Q14315, whole entry": "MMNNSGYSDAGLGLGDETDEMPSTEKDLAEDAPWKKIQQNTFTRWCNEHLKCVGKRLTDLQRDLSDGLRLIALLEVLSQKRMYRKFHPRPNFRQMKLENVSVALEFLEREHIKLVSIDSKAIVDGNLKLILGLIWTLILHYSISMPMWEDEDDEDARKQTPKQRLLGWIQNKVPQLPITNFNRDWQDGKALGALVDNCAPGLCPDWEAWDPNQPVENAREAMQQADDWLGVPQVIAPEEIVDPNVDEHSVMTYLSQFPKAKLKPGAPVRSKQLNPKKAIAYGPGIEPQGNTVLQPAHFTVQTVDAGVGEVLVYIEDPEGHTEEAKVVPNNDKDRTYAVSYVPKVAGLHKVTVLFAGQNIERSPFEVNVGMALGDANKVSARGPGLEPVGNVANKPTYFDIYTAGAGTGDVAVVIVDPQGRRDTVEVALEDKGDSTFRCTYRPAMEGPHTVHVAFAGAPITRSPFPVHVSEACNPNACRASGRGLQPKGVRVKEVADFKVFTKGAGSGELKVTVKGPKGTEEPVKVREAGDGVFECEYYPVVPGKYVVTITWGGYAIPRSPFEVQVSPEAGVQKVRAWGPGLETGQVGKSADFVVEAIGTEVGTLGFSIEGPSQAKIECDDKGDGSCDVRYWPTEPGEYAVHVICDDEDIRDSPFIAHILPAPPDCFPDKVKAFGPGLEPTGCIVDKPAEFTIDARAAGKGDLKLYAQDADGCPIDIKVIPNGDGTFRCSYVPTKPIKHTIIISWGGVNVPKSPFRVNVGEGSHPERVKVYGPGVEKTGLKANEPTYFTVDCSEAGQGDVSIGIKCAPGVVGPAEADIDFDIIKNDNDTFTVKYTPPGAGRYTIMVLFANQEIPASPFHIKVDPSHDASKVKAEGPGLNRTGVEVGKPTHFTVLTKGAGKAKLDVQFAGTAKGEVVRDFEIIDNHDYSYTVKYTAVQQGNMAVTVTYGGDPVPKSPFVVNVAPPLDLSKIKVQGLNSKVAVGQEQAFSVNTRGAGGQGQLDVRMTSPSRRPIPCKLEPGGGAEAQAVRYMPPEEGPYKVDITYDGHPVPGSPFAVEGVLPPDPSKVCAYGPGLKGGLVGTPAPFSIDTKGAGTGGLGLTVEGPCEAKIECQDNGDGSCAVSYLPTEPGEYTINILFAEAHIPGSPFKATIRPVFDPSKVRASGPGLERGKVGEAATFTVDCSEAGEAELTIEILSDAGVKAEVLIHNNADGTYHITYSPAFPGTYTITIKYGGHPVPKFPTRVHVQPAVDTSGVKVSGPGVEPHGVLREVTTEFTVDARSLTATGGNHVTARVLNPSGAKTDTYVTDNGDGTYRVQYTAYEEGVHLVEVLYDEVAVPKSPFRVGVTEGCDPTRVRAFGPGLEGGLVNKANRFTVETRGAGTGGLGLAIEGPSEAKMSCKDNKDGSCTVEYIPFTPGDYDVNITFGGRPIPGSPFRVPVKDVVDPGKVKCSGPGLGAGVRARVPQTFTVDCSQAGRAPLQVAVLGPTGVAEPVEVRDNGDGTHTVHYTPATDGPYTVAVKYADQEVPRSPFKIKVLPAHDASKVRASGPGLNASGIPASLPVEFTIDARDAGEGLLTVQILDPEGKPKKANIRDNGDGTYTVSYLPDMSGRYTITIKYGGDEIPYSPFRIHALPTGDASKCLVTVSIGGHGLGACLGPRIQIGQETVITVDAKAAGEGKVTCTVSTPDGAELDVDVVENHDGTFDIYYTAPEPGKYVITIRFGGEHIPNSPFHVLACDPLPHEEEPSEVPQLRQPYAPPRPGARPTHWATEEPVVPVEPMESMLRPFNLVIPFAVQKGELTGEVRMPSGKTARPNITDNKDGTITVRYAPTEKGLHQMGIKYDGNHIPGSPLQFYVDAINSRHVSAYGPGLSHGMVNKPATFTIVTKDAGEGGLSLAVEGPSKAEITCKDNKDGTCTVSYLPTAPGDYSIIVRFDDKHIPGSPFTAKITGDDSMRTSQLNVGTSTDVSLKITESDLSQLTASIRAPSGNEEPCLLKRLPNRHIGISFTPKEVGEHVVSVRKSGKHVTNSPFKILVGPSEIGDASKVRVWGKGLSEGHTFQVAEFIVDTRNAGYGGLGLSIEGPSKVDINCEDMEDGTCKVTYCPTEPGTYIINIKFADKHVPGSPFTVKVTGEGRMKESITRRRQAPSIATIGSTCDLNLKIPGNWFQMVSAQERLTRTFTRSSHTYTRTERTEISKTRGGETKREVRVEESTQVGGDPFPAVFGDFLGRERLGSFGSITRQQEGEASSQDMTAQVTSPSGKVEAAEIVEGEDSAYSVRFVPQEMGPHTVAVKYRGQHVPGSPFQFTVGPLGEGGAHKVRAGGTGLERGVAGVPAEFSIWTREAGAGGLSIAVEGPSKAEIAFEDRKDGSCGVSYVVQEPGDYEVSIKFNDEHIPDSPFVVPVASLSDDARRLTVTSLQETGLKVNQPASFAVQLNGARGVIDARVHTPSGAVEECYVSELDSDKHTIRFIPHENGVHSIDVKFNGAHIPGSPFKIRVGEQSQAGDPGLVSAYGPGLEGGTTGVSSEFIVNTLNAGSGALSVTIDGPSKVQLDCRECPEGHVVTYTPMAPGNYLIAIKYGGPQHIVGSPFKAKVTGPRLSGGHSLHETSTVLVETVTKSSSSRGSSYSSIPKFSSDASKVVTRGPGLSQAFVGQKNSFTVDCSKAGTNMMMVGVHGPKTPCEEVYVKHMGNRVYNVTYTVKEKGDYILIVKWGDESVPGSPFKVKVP", "UniProt Q13395": "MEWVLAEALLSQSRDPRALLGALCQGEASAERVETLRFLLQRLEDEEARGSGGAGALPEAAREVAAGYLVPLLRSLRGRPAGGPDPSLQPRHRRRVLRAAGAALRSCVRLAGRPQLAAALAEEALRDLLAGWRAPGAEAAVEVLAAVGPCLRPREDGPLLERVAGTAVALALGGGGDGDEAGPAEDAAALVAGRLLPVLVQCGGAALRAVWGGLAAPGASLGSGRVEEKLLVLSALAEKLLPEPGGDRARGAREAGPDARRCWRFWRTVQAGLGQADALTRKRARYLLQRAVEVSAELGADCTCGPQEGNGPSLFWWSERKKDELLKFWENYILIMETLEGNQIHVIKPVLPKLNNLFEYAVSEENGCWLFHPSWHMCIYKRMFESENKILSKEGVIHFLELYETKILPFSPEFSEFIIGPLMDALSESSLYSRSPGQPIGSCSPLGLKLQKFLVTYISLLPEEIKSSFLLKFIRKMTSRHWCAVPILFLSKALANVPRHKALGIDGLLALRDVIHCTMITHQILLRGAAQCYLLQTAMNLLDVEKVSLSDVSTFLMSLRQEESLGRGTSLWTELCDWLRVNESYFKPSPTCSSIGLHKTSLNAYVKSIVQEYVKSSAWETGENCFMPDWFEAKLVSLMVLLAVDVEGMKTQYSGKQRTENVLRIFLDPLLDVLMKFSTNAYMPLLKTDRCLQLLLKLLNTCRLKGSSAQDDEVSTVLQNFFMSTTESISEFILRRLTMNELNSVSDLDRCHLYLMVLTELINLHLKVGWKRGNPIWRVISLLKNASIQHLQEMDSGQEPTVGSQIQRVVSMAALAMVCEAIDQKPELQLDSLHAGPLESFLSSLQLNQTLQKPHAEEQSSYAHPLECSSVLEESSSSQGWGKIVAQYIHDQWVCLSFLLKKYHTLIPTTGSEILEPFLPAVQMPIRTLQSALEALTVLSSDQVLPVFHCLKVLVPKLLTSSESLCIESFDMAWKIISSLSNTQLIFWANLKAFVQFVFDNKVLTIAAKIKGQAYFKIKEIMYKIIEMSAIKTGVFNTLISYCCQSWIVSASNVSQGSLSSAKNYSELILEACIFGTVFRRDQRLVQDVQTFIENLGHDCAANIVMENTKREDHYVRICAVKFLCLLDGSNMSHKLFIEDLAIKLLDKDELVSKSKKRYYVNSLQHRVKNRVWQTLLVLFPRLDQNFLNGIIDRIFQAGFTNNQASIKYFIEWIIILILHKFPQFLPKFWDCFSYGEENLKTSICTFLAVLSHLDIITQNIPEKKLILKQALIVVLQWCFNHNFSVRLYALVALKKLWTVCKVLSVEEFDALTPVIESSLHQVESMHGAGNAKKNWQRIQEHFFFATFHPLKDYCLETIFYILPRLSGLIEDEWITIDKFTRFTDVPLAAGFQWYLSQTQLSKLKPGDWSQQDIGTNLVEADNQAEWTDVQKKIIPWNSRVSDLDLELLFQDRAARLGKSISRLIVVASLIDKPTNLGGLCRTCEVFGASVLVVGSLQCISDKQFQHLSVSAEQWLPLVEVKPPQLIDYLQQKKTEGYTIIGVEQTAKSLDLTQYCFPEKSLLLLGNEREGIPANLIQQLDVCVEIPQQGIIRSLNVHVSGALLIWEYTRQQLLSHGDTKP", "UniProt Q14498": "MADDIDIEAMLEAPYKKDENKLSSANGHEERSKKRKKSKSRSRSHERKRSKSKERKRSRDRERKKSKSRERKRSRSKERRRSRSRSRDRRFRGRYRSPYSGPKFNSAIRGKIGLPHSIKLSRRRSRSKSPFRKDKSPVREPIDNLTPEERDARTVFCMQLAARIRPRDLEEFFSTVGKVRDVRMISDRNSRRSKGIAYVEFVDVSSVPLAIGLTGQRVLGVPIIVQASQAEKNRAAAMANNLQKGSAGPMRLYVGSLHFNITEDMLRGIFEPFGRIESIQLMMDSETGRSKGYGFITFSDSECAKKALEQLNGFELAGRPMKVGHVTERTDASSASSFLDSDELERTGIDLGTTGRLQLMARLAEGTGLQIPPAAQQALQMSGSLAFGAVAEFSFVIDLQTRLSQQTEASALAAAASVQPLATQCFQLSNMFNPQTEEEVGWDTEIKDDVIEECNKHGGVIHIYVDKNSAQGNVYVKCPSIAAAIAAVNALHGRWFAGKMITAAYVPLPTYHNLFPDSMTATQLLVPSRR", "UniProt Q14919": "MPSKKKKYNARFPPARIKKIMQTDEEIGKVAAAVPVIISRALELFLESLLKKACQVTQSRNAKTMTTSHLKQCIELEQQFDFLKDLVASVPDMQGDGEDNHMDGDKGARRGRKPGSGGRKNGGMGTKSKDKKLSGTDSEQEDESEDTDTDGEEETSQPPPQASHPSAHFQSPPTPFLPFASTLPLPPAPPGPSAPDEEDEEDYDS", "UniProt Q13496": "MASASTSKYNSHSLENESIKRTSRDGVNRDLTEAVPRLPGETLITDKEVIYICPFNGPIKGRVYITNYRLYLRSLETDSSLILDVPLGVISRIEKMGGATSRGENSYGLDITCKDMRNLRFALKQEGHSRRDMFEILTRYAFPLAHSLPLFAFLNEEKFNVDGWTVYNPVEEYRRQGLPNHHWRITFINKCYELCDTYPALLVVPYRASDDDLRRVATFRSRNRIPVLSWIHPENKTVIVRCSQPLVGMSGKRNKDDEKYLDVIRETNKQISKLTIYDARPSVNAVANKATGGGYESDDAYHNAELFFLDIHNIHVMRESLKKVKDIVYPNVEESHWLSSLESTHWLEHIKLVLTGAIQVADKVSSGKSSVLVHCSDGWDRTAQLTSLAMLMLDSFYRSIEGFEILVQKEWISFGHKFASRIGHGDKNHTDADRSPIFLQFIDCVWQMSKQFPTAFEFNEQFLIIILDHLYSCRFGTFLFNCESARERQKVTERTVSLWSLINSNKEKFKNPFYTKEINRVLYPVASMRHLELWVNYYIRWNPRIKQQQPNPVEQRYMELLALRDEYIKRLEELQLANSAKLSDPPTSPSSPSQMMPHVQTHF"},
  "source": "the supplement of paper PMC12595434",
  "about": "“Development of retinoid nuclear receptor pathway antagonists through targeting aldehyde dehydrogenase 1A3” (iScience, 2025)",
  "compound": "CCc1cnccc1C(=O)Nc1cc2c(cc1F)NC(=O)CC2",
  "assay": "melting temperature shift (DMSO Tm minus MBE1-treated Tm) in cellular thermal proteome profiling; higher = less thermal stabilization by MBE1 (negative = stabilized by MBE1)",
  "conditions": "A375",
  "note": "The list shows a part of the results. This is a noisy data set.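 Tm was set to 64 °C where no melting was found, and many curves are irregular.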",
  "data": [
    {"target": "KRR1 (UniProt Q13601)", "values": [
      {"measurement": "melting temperature shift", "setting": "MBE1 concentration: 100 nM", "value": -0.128, "unit": "°C"},
      {"measurement": "melting temperature shift", "setting": "MBE1 concentration: 1 uM", "value": -0.557, "unit": "°C"}
    ]},
    {"target": "SQSTM1 (UniProt Q13501)", "values": [
      {"measurement": "melting temperature shift", "setting": "MBE1 concentration: 100 nM", "value": 0.867, "unit": "°C"},
      {"measurement": "melting temperature shift", "setting": "MBE1 concentration: 1 uM", "value": 0.458, "unit": "°C"}
    ]},
    {"target": "CUL7 (UniProt Q14999)", "values": [
      {"measurement": "melting temperature shift", "setting": "MBE1 concentration: 100 nM", "value": -1.09, "unit": "°C"},
      {"measurement": "melting temperature shift", "setting": "MBE1 concentration: 1 uM", "value": -0.847, "unit": "°C"}
    ]},
    {"target": "ORC2 (UniProt Q13416)", "values": [
      {"measurement": "melting temperature shift", "setting": "MBE1 concentration: 100 nM", "value": -0.237, "unit": "°C"},
      {"measurement": "melting temperature shift", "setting": "MBE1 concentration: 1 uM", "value": -0.519, "unit": "°C"}
    ]},
    {"target": "UNC119 (UniProt Q13432)", "values": [
      {"measurement": "melting temperature shift", "setting": "MBE1 concentration: 100 nM", "value": 0.69, "unit": "°C"},
      {"measurement": "melting temperature shift", "setting": "MBE1 concentration: 1 uM", "value": 0.611, "unit": "°C"}
    ]},
    {"target": "UniProt Q13454", "values": [
      {"measurement": "melting temperature shift", "setting": "MBE1 concentration: 100 nM", "value": -0.577, "unit": "°C"},
      {"measurement": "melting temperature shift", "setting": "MBE1 concentration: 1 uM", "value": -0.429, "unit": "°C"}
    ]},
    {"target": "MTA1 (UniProt Q13330)", "values": [
      {"measurement": "melting temperature shift", "setting": "MBE1 concentration: 100 nM", "value": -1.33, "unit": "°C"},
      {"measurement": "melting temperature shift", "setting": "MBE1 concentration: 1 uM", "value": -0.0448, "unit": "°C"}
    ]},
    {"target": "FLNC (UniProt Q14315)", "values": [
      {"measurement": "melting temperature shift", "setting": "MBE1 concentration: 100 nM", "value": -0.287, "unit": "°C"},
      {"measurement": "melting temperature shift", "setting": "MBE1 concentration: 1 uM", "value": -0.208, "unit": "°C"}
    ]},
    {"target": "UniProt Q14533", "values": [
      {"measurement": "melting temperature shift", "setting": "MBE1 concentration: 100 nM", "value": -3.46, "unit": "°C"},
      {"measurement": "melting temperature shift", "setting": "MBE1 concentration: 1 uM", "value": -10.1, "unit": "°C"}
    ]},
    {"target": "RIPK1 (UniProt Q13546)", "values": [
      {"measurement": "melting temperature shift", "setting": "MBE1 concentration: 100 nM", "value": -0.39, "unit": "°C"},
      {"measurement": "melting temperature shift", "setting": "MBE1 concentration: 1 uM", "value": -0.32, "unit": "°C"}
    ]},
    {"target": "ARHGEF7 (UniProt Q14155)", "values": [
      {"measurement": "melting temperature shift", "setting": "MBE1 concentration: 100 nM", "value": -0.532, "unit": "°C"},
      {"measurement": "melting temperature shift", "setting": "MBE1 concentration: 1 uM", "value": -0.772, "unit": "°C"}
    ]},
    {"target": "UniProt Q14146", "values": [
      {"measurement": "melting temperature shift", "setting": "MBE1 concentration: 100 nM", "value": -0.386, "unit": "°C"},
      {"measurement": "melting temperature shift", "setting": "MBE1 concentration: 1 uM", "value": -0.146, "unit": "°C"}
    ]},
    {"target": "MTX1 (UniProt Q13505)", "values": [
      {"measurement": "melting temperature shift", "setting": "MBE1 concentration: 100 nM", "value": -0.516, "unit": "°C"},
      {"measurement": "melting temperature shift", "setting": "MBE1 concentration: 1 uM", "value": 0.202, "unit": "°C"}
    ]},
    {"target": "UniProt Q14667", "values": [
      {"measurement": "melting temperature shift", "setting": "MBE1 concentration: 100 nM", "value": -0.366, "unit": "°C"},
      {"measurement": "melting temperature shift", "setting": "MBE1 concentration: 1 uM", "value": 0.318, "unit": "°C"}
    ]},
    {"target": "TARBP1 (UniProt Q13395)", "values": [
      {"measurement": "melting temperature shift", "setting": "MBE1 concentration: 100 nM", "value": -0.443, "unit": "°C"},
      {"measurement": "melting temperature shift", "setting": "MBE1 concentration: 1 uM", "value": 0.733, "unit": "°C"}
    ]},
    {"target": "COG2 (UniProt Q14746)", "values": [
      {"measurement": "melting temperature shift", "setting": "MBE1 concentration: 100 nM", "value": 0.546, "unit": "°C"},
      {"measurement": "melting temperature shift", "setting": "MBE1 concentration: 1 uM", "value": 0.122, "unit": "°C"}
    ]},
    {"target": "DCTN1 (UniProt Q14203)", "values": [
      {"measurement": "melting temperature shift", "setting": "MBE1 concentration: 100 nM", "value": 0.304, "unit": "°C"},
      {"measurement": "melting temperature shift", "setting": "MBE1 concentration: 1 uM", "value": 0.173, "unit": "°C"}
    ]},
    {"target": "DYNC1I2 (UniProt Q13409)", "values": [
      {"measurement": "melting temperature shift", "setting": "MBE1 concentration: 100 nM", "value": -0.879, "unit": "°C"},
      {"measurement": "melting temperature shift", "setting": "MBE1 concentration: 1 uM", "value": 0.425, "unit": "°C"}
    ]},
    {"target": "RBM39 (UniProt Q14498)", "values": [
      {"measurement": "melting temperature shift", "setting": "MBE1 concentration: 100 nM", "value": -0.837, "unit": "°C"},
      {"measurement": "melting temperature shift", "setting": "MBE1 concentration: 1 uM", "value": -0.917, "unit": "°C"}
    ]},
    {"target": "GTF2H3 (UniProt Q13889)", "values": [
      {"measurement": "melting temperature shift", "setting": "MBE1 concentration: 100 nM", "value": -1.66, "unit": "°C"},
      {"measurement": "melting temperature shift", "setting": "MBE1 concentration: 1 uM", "value": -0.102, "unit": "°C"}
    ]},
    {"target": "DRAP1 (UniProt Q14919)", "values": [
      {"measurement": "melting temperature shift", "setting": "MBE1 concentration: 100 nM", "value": -3.69, "unit": "°C"},
      {"measurement": "melting temperature shift", "setting": "MBE1 concentration: 1 uM", "value": -0.118, "unit": "°C"}
    ]},
    {"target": "MORF4L2 (UniProt Q15014)", "values": [
      {"measurement": "melting temperature shift", "setting": "MBE1 concentration: 100 nM", "value": -1.33, "unit": "°C"},
      {"measurement": "melting temperature shift", "setting": "MBE1 concentration: 1 uM", "value": 12.4, "unit": "°C"}
    ]},
    {"target": "MTM1 (UniProt Q13496)", "values": [
      {"measurement": "melting temperature shift", "setting": "MBE1 concentration: 100 nM", "value": -1.05, "unit": "°C"},
      {"measurement": "melting temperature shift", "setting": "MBE1 concentration: 1 uM", "value": 0.379, "unit": "°C"}
    ]},
    {"target": "UniProt Q13115", "values": [
      {"measurement": "melting temperature shift", "setting": "MBE1 concentration: 100 nM", "value": 0.372, "unit": "°C"},
      {"measurement": "melting temperature shift", "setting": "MBE1 concentration: 1 uM", "value": -0.0577, "unit": "°C"}
    ]},
    {"target": "SRSF9 (UniProt Q13242)", "values": [
      {"measurement": "melting temperature shift", "setting": "MBE1 concentration: 100 nM", "value": 2.03, "unit": "°C"},
      {"measurement": "melting temperature shift", "setting": "MBE1 concentration: 1 uM", "value": -0.348, "unit": "°C"}
    ]}
  ]
}
